Tested on: NSCLC cell lines
Conditions: cell lines protected against apoptosis induced by cytotoxic drugs; 48 hours

Row | SMILES | sensitivity to apoptosis induced by PKC-specific inhibitors (sub-G1)
1 | CO[C@@H]1[C@H](N(C)C(=O)c2ccccc2)C[C@H]2O[C@]1(C)n1c3ccccc3c3c4c(c5c6ccccc6n2c5c31)C(=O)NC4 [PKC412, N-[(9S,10R,11R,13R)-2,3,10,11,12,13-hexahydro-10-methoxy-9-methyl-1-oxo-9,13-epoxy-1H,9H-diindolo[1,2,3-gh:3′,2′,1′-Im]pyrrolo[3,4j][1,7]benzodiazonin-11-yl]-N-methylbenzamide] | reduced sensitivity
2 | CN[C@@H]1C[C@H]2O[C@@](C)([C@@H]1OC)n1c3ccccc3c3c4c(c5c6ccccc6n2c5c31)C(=O)NC4 [staurosporine] | reduced sensitivity
